Reference: publication PMC11079228
These are yes or no findings as the source states them, for the method shown. In cells and extracts the contact can be indirect. A yes stands for co-enrichment or nearness to the bait. Other partners may have been found. Blank lines part the entries; values can stand above or below the binder they belong to.

Target: Huntingtin-interacting protein 1 (rat) (rat (endogenous in rat FLS))
Test: affinity purification with mass spectrometry; rabbit anti-rat-HIP1 antibody (20 μg per sample) on Dynabeads M-270 Epoxy; total lysates of rat FLS (one DA and one R6 cell line, each in triplicate), starved 24 h, then PDGFβ 100 ng/mL 30 min; lysis in water with protease and phosphatase inhibitors by three freeze-thaw cycles; elution with 8 M urea, LysC and trypsin, nano-LC-MS/MS, label-free quantitation

B1: MCM4 (protein, UniProt G3V681 1-862)
chain: MSSPASTPSRRSSRRGRVTPTQSLRSEESRSSPSGRRRGEDSSTGELLPMPTSPGADLQSPAAQNALFSSPPQMHSSAIPLEFDVSSPLTYGTPSSRVEGTPRSGVRGTPMRQRPDLGSARKGLQVDLQSDGAAAEDTVASEQSLGQKLVIWGTDVNVATCKEHFQRFLQCFTDPLAKEEENVGIDITQPLYMQRLGEINITGEPFLNVNCEHIKSFGKNLYRQLISYPQEVIPTFDMAVNEIFFDRYPDSILEHQIQVRPFNALKTKSMRNLNPEDIDQLITISGMVIRTSQLIPEMQEAFFQCQVCAHTTRVEMDRGRIAEPCTCVHCHTTHSMALIHNRSLFSDKQMIKLQESPEDMPAGQTPHTVVLFAHNDLVDKVQPGDRVNVTGIYRAVPIRVNPRVSNVKSVYKTHIDVIHYRKTDAKRLHGLDEEAEQKLFSEKRVKLLKELSRKPDIYERLASALAPSIYEHEDIKKGILLQLFGGTRKDFSHTGRGKFRAEINILLCGDPGTSKSQLLQYVYNLVPRGQYTSGKGSSAVGLTAYVMKDPETRQLVLQTGALVLSDNGICCIDEFDKMNESTRSVLHEVMEQQTLSIAKAGIICQLNARTSVLAAANPIESQWNPKKTTIENIQLPHTLLSRFDLIFLMLDPQDEAYDRRLAHHLVSLYYQSEEQVEQEFLDMAVLKDYIAYAHSTIMPRLSEEASQALIEAYVNMRKIGSSRGMVSAYPRQLESLIRLAEAHAKVRFSDKVEAIDVEEAKRLHREALKQSATDPRTGIVDISILTTGMSATSRKRKEELAEALRKLILSKGKTPALKYQQLFEDIRGQSDTAITKDMFEEALRALADDDFLTVTGKTVRLL
binding: binds

B2: IDH3A (protein, UniProt Q99NA5 28-366)
chain: AGGVQTVTLIPGDGIGPEISASVMKIFDAAKAPIQWEERNVTAIQGPGGKWMIPPEAKESMDKNKMGLKGPLKTPIAAGHPSMNLLLRKTFDLYANVRPCVSIEGYKTPYTDVNIVTIRENTEGEYSGIEHVIVDGVVQSIKLITEGASKRIAEFAFEYARNNHRSNVTAVHKANIMRMSDGLFLQKCREVAENCKDIKFNEMYLDTVCLNMVQDPSQFDVLVMPNLYGDILSDLCAGLIGGLGVTQSGNIGANGVAIFESVHGTAPDIAGKDMANPTALLLSAVMMLRHMGLFDHAAKIEAACFATIKDGKSLTKDLGGNSKCSDFTEEICRRVKDLD
binding: binds

B3: IDH2 (protein, UniProt P56574 40-452)
chain: AEKRIKVEKPVVEMDGDEMTRIIWQFIKEKLILPHVDVQLKYFDLGLPNRDQTNDQVTIDSALATQKYSVAVKCATITPDEARVEEFKLKKMWKSPNGTIRNILGGTVFREPIICKNIPRLVPGWTKPITIGRHAHGDQYKATDFVVDRAGMFKLVFTPKDGSGAKEWEVYNFPAGGVGMGMYNTDESISGFAHSCFQYSIQKKWPLYLSTKNTIMKAYDGRFKDIFQEIFDKHYKTDFDKNKIWYEHRLIDDMVAQVLKSSGGFVWACKNYDGDVQSDILAQGFGSLGLMTSVLVCPDGKTIEAEAAHGTVTRHYREHQKGRPTSTNPIASIFAWTRGLEHRGKLDGNQDLIRFAQTLEKVCVQTVESGAMTKDLAGCIHGLSNVKLNEHFLNTTDFLDTIKSNLDRALGKQ
binding: binds

B4: 14-3-3 protein gamma; tyrosine 3-monooxygenase/tryptophan 5-monooxygenase activation protein, gamma (protein, UniProt P61983 1-247)
chain: MVDREQLVQKARLAEQAERYDDMAAAMKNVTELNEPLSNEERNLLSVAYKNVVGARRSSWRVISSIEQKTSADGNEKKIEMVRAYREKIEKELEAVCQDVLSLLDNYLIKNCSETQYESKVFYLKMKGDYYRYLAEVATGEKRATVVESSEKAYSEAHEISKEHMQPTHPIRLGLALNYSVFYYEIQNAPEQACHLAKTAFDDAIAELDTLNEDSYKDSTLIMQLLRDNLTLWTSDQQDDDGGEGNN
binding: binds

Other lines, results leading:

binding: binds
B5: UBL4A (protein, UniProt B2GV38 1-157)
chain: MQLTVKALQGRECSLQVAEDELVSTLKHLVSDKLNVPVRQQRLLFKGKALADEKRLSDYNIGPNSKLNLVVKPLEKVLLEEGSAHRLVDSSATPIWQLISKVLARHFSIGDASRVLEQLQRDYDRSLSRLTLDDIERLASRFLHPEVTEAMEKGFCK

binding: binds
B6: Vinculin (protein, UniProt P85972 1-1066)
chain: MPVFHTRTIESILEPVAQQISHLVIMHEEGEVDGKAIPDLTAPVAAVQAAVSNLVRVGKETVQTTEDQILKRDMPPAFIKVENACTKLVQAAQMLQSDPYSVPARDYLIDGSRGILSGTSDLLLTFDEAEVRKIIRVCKGILEYLTVAEVVETMEDLVTYTKNLGPGMTKMAKMIDERQQELTHQEHRVMLVNSMNTVKELLPVLISAMKIFVTTKNSKNQGIEEALKNRNFTVGKMSAEINEIIRVLQLTSWDEDAWASKDTEAMKRALASIDSKLNQAKGWLRDPNASPGDAGEQAIRQILDEAGKVGELCAGKERREILGTCKMLGQMTDQVADLRARGQGASPVAMQKAQQVSQGLDVLTAKVENAARKLEAMTNSKQSIAKKIDAAQNWLADPNGGPEGEEQIRGALAEARKIAELCDDPKERDDILRSLGEIAALTSKLGDLRRQGKGDSPEARALAKQVATALQNLQTKTNRAVANSRPAKAAVHLEGKIEQAQRWIDNPTVDDRGVGQAAIRGLVAEGHRLANVMMGPYRQDLLAKCDRVDQLAAQLADLAARGEGESPQARALASQLQDSLKDLKTQMQEAMTQEVSDVFSDTTTPIKLLAVAATAPPDAPNREEVFDERAANFENHSGRLGATAEKAAAVGAANKSTVEGIQASVKTARELTPQVISAARILLRNPGNQAAYEHFETMKNQWIDNVEKMTGLVDEAIDTKSLLDASEEAIKKDLDKCKVAMANIQPQMLVAGATSIARRANRILLVAKREVENSEDPKFREAVKAASDELSKTISPMVMDAKAVAGNISDPGLQKSFLDSGYRILGAVAKVREAFQPQEPDFPPPPPDLEQLRLTDELAPPKPPLPEGEVPPPRPPPPEEKDEEFPEQKAGEVINQPMMMAARQLHDEARKWSSKGNDIIAAAKRMALLMAEMSRLVRGGSGTKRALIQCAKDIAKASDEVTRLAKEVAKQCTDKRIRTNLLQVCERIPTISTQLKILSTVKATMLGRTNISDEESEQATEMLVHNAQNLMQSVKETVREAEAASIKIRTDAGFTLRWVRKTPWYQ

binding: binds
B7: VCPIP1 (protein, UniProt Q8CF97 1-1221)
chain: MSQPPPPPPLPPPPPPPEAPQTSSSLAAAATPGGLSKRRDRRILSGSCPDPKCQARLFFPASGSVSIECTECGQRHEQQQLLGVEEVTDPDVVLHNLLRNALLGVTGAPKKNTELVKVMGLSNYHCKLLSPILARYGMDKQTGRAKLLRDMNQGELFDCALLGDRAFLIEPEHVNTVGYGKDRSGSLLYLHDTLEDIKRANKSQECLIPVHVDGDGHCLVHAVSRALVGRELFWHALRENLKQHFQQHLARYQALFHDFIDAAEWEDIINECDPLFVPPEGVPLGLRNIHIFGLANVLHRPIILLDSLSGMRSSGDYSATFLPGLIPAEKCTGRDGHLNKPICIAWSSSGRNHYIPLVGIKGAALPKLPMNLLPKAWGVPQDLIKKYIKLEEDGGCVIGGDRSLQDKYLLRLVAAMEEVFMDKHGIHPSLVADVHQYFYRRTGVIGVQPEEVTAAAKKAVMDNRLHKCLLCGALSELHVPPEWLAPGGKLYNLAKSTHGQLRPDKNYSFPLNNLVCSYDPVKDVLLPDYGLSNLTACNWCHGTSVRRVRGDGSIVYLDGDRTNSRSTGGKCGCGFKHFWEGKEYDNLPEAFPITLEWGGRVVRETVYWFQYESDPSLNSNVYDVAMKLVTKHFPGEFGSEILVQKVVHTILHQTAKKNPDDYTPVNIDGAHAQRIGDVQGQELESQLPTKIILTGQKTKTLHKEELNMSKTERTIQQNITEQASVMQKRKTEKLKQEQKGQPRTVSPSTIRDGPSSAPATPTKAPYSPTTSKEKKIRITTNDGRQSMVTLKSSTTFFELQESIAREFNIPPYLQCIRYGFPPKELMPPQAGMEKEPVPLQHGDRITIEILKGKAEGGPSTAAHSAHTVRQEEIAVTGKLSSKELQEQADKEMYSLCLLATLMGEDVWSYAKGLPHMFQQGGVFYNIMKKTMGMADGKHCTFPHLPGKTFVYNASEDRLELCVDAAGHFPIGPDVEDLVKEAVSQVRAEATTRSRESSPSHGLLKLGSGGVVKKKSEQLHNVTAFQGKGHSLGTASSNPHMDPRARETLAVRKHNTGTDFSNSSIKTEPPVFTAASSNSELIRIAPGVVTMRDGRQIDPDVVEAQRKKLQEMVSSIQASMDKHLRDQSTEQTPSDLSQRKVEAVSSSVRPGNLQTGLPESFSLTGGTENLNTETTDSRVADVLGAAFATRSKAQKENSMEEPEEMDSQDAETTNTTEPMDHS
